Data source: PubChem BioAssay AID1259327 (Drosophila RNAi Screening Center, 2017)

- Assay: 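Data from controls in screens of zinc and manganese toxicity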
- Cells: Drosophila S2R+ cells
- Reagents: long dsRNA against Drosophila genes
- Duration: 5 days (water added on day 4, read one day later)
- Treatment: water added as vehicle, no metal, one day before read-out
- Read-out: 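Luciferase ATP signal per well, normalised to plate mean, duplicate average converted to z-score across plates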
- Scale: ATP z-score: higher = more total ATP than typical wells; ATP luminescence: higher = more total ATP
- Hit rule: 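Called active when the ATP z-score exceeds 1.5 or falls below -1.5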
- Meaning of the calls: active = hit: ATP up or down; inactive = no clear ATP change
Shown is one part, drawn at random, of about 3,100 reagents tested. 378 of all reagents (12%) were called active. 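Hits include both directions; z-score sign shows ATP rise or fall; raw luminescence values are not plate-normalised.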 A number with no mark means an inactive call. The record does not give: the amount of reagent.

target gene | DRSC id | ATP z-score, duplicate mean | ATP luminescence, replicate 1 (RLU) | ATP luminescence, replicate 2 (RLU)
CG5554 | DRSC04513 | -0.24 | 7.09e5 | 6.93e5
CG5554 | DRSC25559 | 0.426 | 1.01e6 | 7.92e5
CG1907 | DRSC15399 | 0.418 | 7.33e5 | 7.64e5
CG11601 | DRSC00318 | 0.516 | 8.05e5 | 7.14e5
CG11601 | DRSC39635 | -1.09 | 4.05e5 | 3.77e5
Zip42C.1 (Zinc/iron regulated transporter-related protein 42C.1) | DRSC05003 | -0.212 | 5.77e5 | 6.24e5
ppk22 (pickpocket 22) | DRSC22093 | -1.13 | 5.34e5 | 4.33e5
CG13325 | DRSC06362 | 0.471 | 7.32e5 | 8.32e5
CG13325 | DRSC24773 | -0.701 | 7.93e5 | 1.01e6
Fie (Fire exit) | DRSC08158 | 0.519 | 8.01e5 | 7.71e5
Fie (Fire exit) | DRSC39856 | 0.977 | 5.95e5 | 7.49e5
Tsp42Eh (Tetraspanin 42Eh) | DRSC06190 | 0.277 | 7.51e5 | 7.96e5
Tsp42Eh (Tetraspanin 42Eh) | DRSC39852 | -0.325 | 4.66e5 | 4.45e5
Gr64a (Gustatory receptor 64a) | DRSC21713 | -1.17 | 4.54e5 | 5.08e5
Gr64a (Gustatory receptor 64a) | DRSC39738 | -1.05 | 3.89e5 | 3.99e5
CG42594 | DRSC18408 | 0.041 | 6.06e5 | 1.02e6
CG42594 | DRSC28979 | -0.128 | 7.08e5 | 8.97e5
CG13016 | DRSC06271 | -0.439 | 5.70e5 | 5.90e5
CG13016 | DRSC39858 | -0.251 | 5.68e5 | 5.56e5
Ir41a (Ionotropic receptor 41a) | DRSC04730 | -0.147 | 7.41e5 | 7.11e5
Ir41a (Ionotropic receptor 41a) | DRSC04875 | -0.341 | 7.48e5 | 6.33e5
wus (wurst) | DRSC20278 | -0.354 | 7.04e5 | 6.35e5
wus (wurst) | DRSC39483 | -0.751 | 4.10e5 | 3.96e5
CG1607 | DRSC15130 | -0.535 | 6.48e5 | 6.53e5
CG1607 | DRSC27010 | -1.11 | 8.92e5 | 9.75e5
PlexB (Plexin B) | DRSC17177 | -1.09 | 7.92e5 | 6.83e5
Gr89a (Gustatory receptor 89a) | DRSC15023 | -0.276 | 2.67e5 | 7.82e5
Gr89a (Gustatory receptor 89a) | DRSC39468 | -0.203 | 4.68e5 | 4.12e5

Laid out differently: entries from further up.
{"target gene":"Ir41a (Ionotropic receptor 41a)","DRSC id":"DRSC04875","ATP z-score, duplicate mean":-0.341,"ATP luminescence, replicate 1 (RLU)":7.48e5,"ATP luminescence, replicate 2 (RLU)":6.33e5}
{"target gene":"wus (wurst)","DRSC id":"DRSC20278","ATP z-score, duplicate mean":-0.354,"ATP luminescence, replicate 1 (RLU)":7.04e5,"ATP luminescence, replicate 2 (RLU)":6.35e5}
{"target gene":"wus (wurst)","DRSC id":"DRSC39483","ATP z-score, duplicate mean":-0.751,"ATP luminescence, replicate 1 (RLU)":4.10e5,"ATP luminescence, replicate 2 (RLU)":3.96e5}
